Results published in PubChem BioAssay AID1347076 (National Center for Advancing Translational Sciences (NCATS), 2019).
Values joined by “and” are separate entries in the source; they are usually repeats but may differ in a detail not shown here. Equal entries are not always repeated. In all, about 400,000 compounds went through this assay and about 13,000 (3.2%) were called active. Inconclusive results, whose numbers are uncertain, are shown with a selection of clear calls. The call rests on the fitted dose curve; in most records, active means well fitted cell-killing curve with a large enough effect; inconclusive means small, poorly fitted or top-dose-only effect, or effect the other way; inactive means flat fitted curve, though single readings scatter. Potencies beside an inconclusive call are fits to weak or partial responses and may not hold up.
On the % scale 0 is the no-effect control and ±100 the full control effect; potency means the concentration at half of the fitted maximal effect.

Assay: qHTS assay for MDR1-selective chemotherapeutics: Primary screen using the drug-selected MDR subline cells KB-V1; further: nearly all actives have a fitted effect of over 60% in size
Details: KB-V1 MDR cells viability, CellTiter-Glo, 72 h; activity change, negative = cytotoxicity: at 46.1 µM (top of the series)
How it was run: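 KB-V1 MDR subline cells in DMEM (phenol-red free, 10% FBS) exposed to compounds in qHTS concentration series for 72 h at 37 degrees C. Viability read by CellTiter-Glo luminescence; concentration-effect curves fitted after normalization and correction.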
With O=[N+]([O-])c1cccc(/C=C2\CCc3cnn(C4CCS(=O)(=O)C4)c32)c1 (stereo unspecified) the Potency was inconclusive: 13 µM [cytotoxic, partial curve, poor fit].
With O=C(CSc1nc(NS(=O)(=O)c2ccccc2)cc(=O)[nH]1)Nc1ccc(Cl)cc1 the “activity change, negative = cytotoxicity” value was inactive: -17.4%.
With Cc1ccc(OCCCn2ccnc2)c(Br)c1 the Potency was inconclusive: 20.6 µM [cytotoxic, single point].
In the case of O=C(CSc1ncn(-c2ccccc2)n1)Nc1nc2c(s1)CCCC2, the “activity change, negative = cytotoxicity” value is reported as inactive: 11.4%.
With O=C(CNS(=O)(=O)c1cccs1)N1CCN(c2ccccn2)CC1 the Potency was inconclusive: 14.6 µM [cytotoxic, partial curve].
In the case of CC(=O)Cn1c(CN2CC(C)CC(C)C2)nc2c1c(=O)n(C)c(=O)n2C (stereo unspecified), the Potency is reported as inconclusive: 20.6 µM [cytotoxic, partial curve, poor fit].
With Cc1cccnc1NC(=O)C(C)N1C(=O)c2ccccc2C1=O (stereo unspecified) the Potency was inconclusive: 29.1 µM [rising, single point].
In the case of Cc1ccc(NC(=O)C(OC(=O)c2cc(C)oc2C)c2ccccc2)cc1 (stereo unspecified), the Potency is reported as inconclusive: 8.2 µM [cytotoxic, partial curve].
In the case of COc1ccc(OC)c(N(CC(=O)NCCSCc2ccco2)S(=O)(=O)c2ccccc2)c1, the activity change, negative = cytotoxicity is reported as inconclusive: -29.9%.
For CC(C)Oc1ccc(CNC(=S)N/N=C/c2cccnc2)cc1, the Potency was inconclusive: 18.4 µM [cytotoxic, partial curve].
With COCC(C)N1C(=O)Cc2c1nc(N)c1c(N)nc(N3CCN(c4ccccc4F)CC3)c(C#N)c21 (stereo unspecified) the Potency was inconclusive: 18.4 µM [cytotoxic, single point].
In the case of CC1(C)Cc2c(C#N)c(N3CCN(C(=O)c4ccco4)CC3)nc(-c3ccco3)c2CS1, the Potency is reported as active: 5.8 µM.
For N#C/C(=C\c1ccc(Sc2nc3ccccc3[nH]2)o1)c1ccccc1, the “activity change, negative = cytotoxicity” value was inactive: 0%.
For CCC(C(=O)Oc1c(C(C)C)cccc1C(C)C)c1ccccc1 (stereo unspecified), the “activity change, negative = cytotoxicity” value was inactive: 11%.
For COc1ccc2oc(C(=O)Nc3nc(-c4ccccn4)cs3)c(C)c2c1, the Potency was inconclusive: 6.51 µM [cytotoxic, full curve, poor fit].
For O=C(c1cc(-c2ccccc2)nc2ccccc12)N1CCN(c2ccccn2)CC1, the Potency was inconclusive: 29.1 µM [cytotoxic, single point].
In the case of O=C(C1CCN(c2nc3ccccc3[nH]2)CC1)N1CCN(c2ccccc2)CC1, the “activity change, negative = cytotoxicity” value is reported as inactive: 29.5%.
For COc1cc(NC(=O)c2ccco2)c(OC)cc1NC(=O)CSc1ncc(-c2ccc(F)cc2)[nH]1, the Potency was inconclusive: 9.2 µM [cytotoxic, partial curve].
In the case of CC(=O)N1CCN(c2ccc(NC(=O)c3ccc4c(c3)OCO4)cc2)CC1, the “activity change, negative = cytotoxicity” value is reported as inactive: 1.37%.
For O=C(C[n+]1cccc2cccc(O)c21)c1ccc(F)cc1, the “activity change, negative = cytotoxicity” value was inactive: -2.13%.
In the case of Cc1cccc(-c2noc(-c3ccc(NCC4CCCO4)c([N+](=O)[O-])c3)n2)c1 (stereo unspecified), the “activity change, negative = cytotoxicity” value is reported as inactive: 23.2%.
For CCOC(=O)c1c(C)n(-c2ccccc2)c2ccc(OC(=O)c3ccc(OCC)c(OCC)c3)cc12, the Potency was inconclusive: 25.9 µM [cytotoxic, partial curve, poor fit].
For COc1ccc2c(c1)SCC(=O)N2C, the Potency was inconclusive: 29.1 µM [cytotoxic, single point].
With CC1(OC(=O)c2cccs2)C(=O)C=C2C=C3CCCN3C=C2C1=O (stereo unspecified) the Potency was inconclusive: 1.84 µM [rising, partial curve].
For CCOC(=O)c1c(C)oc2c1c(CN1CCN(C(=O)OCC)CC1)c(O)c1ccccc12, the “activity change, negative = cytotoxicity” value was inactive: 0%.
In the case of COc1cc(SC)ccc1C(=O)Nc1c(C)cccc1C, the Potency is reported as inconclusive: 20.6 µM [cytotoxic, single point].
With C[C@@H]1CN([C@@H](C)CO)S(=O)(=O)c2ccc(Br)cc2O[C@H]1CN(C)C(=O)c1ccccc1 the Potency was inconclusive: 18.4 µM [cytotoxic, single point].
In the case of O=C(OCC(=O)N1CCOCC1)c1ccc[nH]c1=O, the Potency is reported as inconclusive: 18.4 µM [rising, partial curve, poor fit].
In the case of CC(C)N(C(=O)[C@H]1C[C@H](CC(=O)NCCC2=CCCCC2)C(=O)N2CCc3c([nH]c4cc(-c5ccco5)ccc34)[C@]12C)C(C)C, the Potency is reported as inconclusive: 29.1 µM [cytotoxic, single point].
With Cc1ccc(S(=O)(=O)Nc2ccc3c(c2)CCC3)cc1 the Potency was active: 20.6 µM.
For COc1ccc(CC(=O)Oc2ccc(F)cc2)cc1, the Potency was inconclusive: 16.4 µM [rising, single point].
In the case of Cc1cc2c(NC(=O)CCCC(=O)O)cccc2nn1, the Potency is reported as inconclusive: 29.1 µM [rising, single point].
With COc1ccc(C(=O)CSc2nnc(Cc3ccccc3)o2)cc1 the “activity change, negative = cytotoxicity” value was inactive: 1.49%.
For COc1ccc(CNC(=O)c2cccc3c(-c4ccc(F)c(F)c4)coc23)cc1OC, the “activity change, negative = cytotoxicity” value was inactive: -20.9%.
With COc1ccc(NC(=O)/C(C#N)=C/c2cc(C)n(-c3ccc(N4CCOCC4)c([N+](=O)[O-])c3)c2C)cc1 the “activity change, negative = cytotoxicity” value was inactive: -22.3%.
With CC(C)c1nc(N2CCOCC2)c(C#N)c2c1COC(C)(C)C2 the Potency was inconclusive: 18.4 µM [cytotoxic, single point].
In the case of CCn1cc(C(=O)N[C@H](C(=O)NCCN2CCOCC2)C(C)C)c(=O)c2cc3c(cc21)OCO3, the Potency is reported as inconclusive: 29.1 µM [cytotoxic, single point].
With COc1ccccc1NC(=S)N1CCN(c2ccccn2)CC1 the Potency was inconclusive: 9.2 µM [cytotoxic, partial curve, poor fit].
For O=C(CNC(=S)N(Cc1ccccc1F)C1CCCCC1)NCC1CCCO1 (stereo unspecified), the Potency was inconclusive: 16.4 µM [cytotoxic, partial curve].
For CCn1c(SCC(=O)c2ccc([N+](=O)[O-])cc2)nnc1-c1ccc(Cl)cc1, the Potency was inconclusive: 8.2 µM [cytotoxic, partial curve].
With CCOC(=O)c1c(NC(=O)CC2Sc3ccc(C(F)(F)F)cc3NC2=O)sc(C)c1C (stereo unspecified) the Potency was inconclusive: 5.8 µM [cytotoxic, partial curve].
In the case of COc1ccc(C=C(c2nc3ccccc3s2)c2nc3ccccc3s2)cc1O, the Potency is reported as inconclusive: 13 µM [cytotoxic, partial curve].
For Cc1ccccc1Nc1nnc(SCC(=O)c2c(N)n(C3CC3)c(=O)[nH]c2=O)s1, the “activity change, negative = cytotoxicity” value was inactive: 0%.
In the case of CC(C)Cn1nc(NS(=O)(=O)c2cccc3nonc23)c2cc3ccccc3nc21, the “activity change, negative = cytotoxicity” value is reported as inactive: -16%.
With COc1cc(CNn2nnnc2N)cc(Br)c1OCC(=O)NC(C)(C)C the “activity change, negative = cytotoxicity” value was inactive: 8.39%.
With CCCCn1cc(S(=O)(=O)c2ccc(OC)cc2)c(=O)c2cc(F)c(F)cc21 the “activity change, negative = cytotoxicity” value was inactive: -6.15%.
In the case of CC(NCC(=O)Nc1cc(S(=O)(=O)N2CCOCC2)ccc1Cl)c1ccc(Cl)cc1Cl (stereo unspecified), the Potency is reported as inconclusive: 20.6 µM [cytotoxic, single point].
In the case of C[C@@H]1C=CC(=O)O[C@@H]1c1ccc(Cl)cc1, the Potency is reported as inconclusive: 10.3 µM [cytotoxic, partial curve, poor fit].
In the case of CCCCNc1ncnc2oc(-c3ccco3)c(-c3ccco3)c12, the Potency is reported as inconclusive: 3.26 µM [cytotoxic, partial curve].
For CC(C)Cn1nc(NC(=O)c2ccco2)c2cc3ccccc3nc21, the Potency was inconclusive: 5.8 µM [cytotoxic, partial curve].
For COc1ccc(NC(=O)c2ccc(OC(F)F)cc2)cc1Cl, the Potency was inconclusive: 29.1 µM [cytotoxic, single point].
In the case of CCc1cccc(C)c1NC(=O)CSc1nc2ccccc2n1CC(=O)N(C)C, the Potency is reported as inconclusive: 14.6 µM [cytotoxic, partial curve, poor fit].
For CCOC(=O)c1c(S(=O)(=O)NCC(=O)Nc2cccc(CC)c2)c(C)n(C)c1C, the “activity change, negative = cytotoxicity” value was inactive: -21.7%.
For COc1ccc(N2CCCn3c2nc2c3c(=O)n(Cc3ccc(F)cc3)c(=O)n2C)c(OC)c1, the Potency was inconclusive: 5.8 µM [cytotoxic, partial curve, poor fit].
With Cc1ccnc(N2CCCC(C(=O)Nc3ccc(C)c(C)c3)C2)n1 (stereo unspecified) the “activity change, negative = cytotoxicity” value was inactive: 0%.
For COc1ccc(C2c3[nH]c4ccccc4c3CCN2Cc2cccn2-c2ncccn2)cc1C (stereo unspecified), the Potency was inconclusive: 6.51 µM [cytotoxic, full curve].
In the case of O=C(Nc1ccc(O)c(-c2nc3ccccc3s2)c1)C1=COCCO1, the Potency is reported as inconclusive: 29.1 µM [cytotoxic, partial curve, poor fit].
In the case of CCN(CC)C(=O)c1sc2c(c1C)c(=O)n(-c1ccccc1)c(=O)n2Cc1cc(=O)n2ccccc2n1, the Potency is reported as inconclusive: 18.4 µM [rising, partial curve, poor fit].
In the case of COc1cc(Nc2c3ccccc3nc3ccccc23)cc(OC)c1OC, the Potency is reported as inconclusive: 32.6 µM [cytotoxic, single point].
For O=C(CCN1CCN(c2ccccc2)CC1)N/N=C/c1ccccc1O, the Potency was inconclusive: 5.17 µM [cytotoxic, partial curve].
With Cc1ccc(OCc2nc(-c3ccc(C(=O)N4CCN(c5ccc(Cl)cc5)CC4)cc3)oc2C)cc1 the “activity change, negative = cytotoxicity” value was inactive: 1.5%.
For CCc1nc(SCC(=O)NC2CCCC2)c2oc3ccccc3c2n1, the Potency was inconclusive: 4.61 µM [cytotoxic, full curve].
In the case of CCCCCNC(=O)Cn1c(=O)c2c(ncn2CC(C)C)n(Cc2ccccc2)c1=O, the Potency is reported as inconclusive: 5.8 µM [cytotoxic, partial curve].
For CN1CCN(C(=O)c2cc3c(c(-c4cccc(Br)c4)n2)[C@H](CCO)N(S(=O)C(C)(C)C)C3)CC1 (stereo partly specified), the “activity change, negative = cytotoxicity” value was inactive: 19.4%.
For COc1cccc(-c2c[nH]c(=O)[nH]c2=O)c1, the Potency was inconclusive: 29.1 µM [cytotoxic, single point].
With Cc1nn(Cc2ccc(Cl)cc2)c(C)c1NC(=O)c1noc2c1CCc1ccccc1-2 the Potency was inconclusive: 18.4 µM [cytotoxic, partial curve, poor fit] and inconclusive: 29.1 µM [cytotoxic, single point].
